# This list was built around the results that the source calls inconclusive (neither active nor inactive); the mix of calls is not that of the screen. Potencies beside an inconclusive call are fits to weak or partial responses and may not hold up. Active and inactive are the calls of the source. Calls follow the shape of the dose curve; as a rule, active = well fitted activation curve with a large enough effect; inconclusive = small, poorly fitted or top-dose-only effect; inactive = flat fitted curve, though single readings scatter.
# Experiment: qHTS for Inhibitors of Cell Surface uPA Generation: FP59 Counterscreen for Cherry-picked Compounds; as to activity (protection from FP59): 0% is about no effect
# Conditions: FP59 anthrax toxin cytotoxicity counterscreen, cells; series mostly up to 115 µM; activity (protection from FP59): at the top concentration
# Potency is read from the fitted curve at half-maximal effect.
Structure (SMILES),activity (protection from FP59),Potency
O=C(CCCOc1ccc(Cl)cc1Cl)NCc1ccncc1,inactive: -1.41%,–
C=C1C(=O)OC2C=C(CO)C3OC3C3OC3(C)CC(OC(=O)/C(=C/C)COC(C)=O)C12 (stereo not drawn),–,"inconclusive: 29.3 µM [activator, partial curve]"
CCN(CC)CC(=O)Nc1sc2c(c1C(=O)c1ccccc1OC)CCC2,–,active: 16.5 µM
CC1CCN(C2=C(NS(=O)(=O)c3ccc(Br)cc3)C(=O)c3ccccc3C2=O)CC1,–,"inconclusive: 65.6 µM [activator, partial curve]"
COc1cccc(-n2c(SCC(=O)Nc3cc(C)on3)nc3c([nH]c4ccccc43)c2=O)c1,inactive: -1.21%,–
Cc1ccnc(N2CCN(C(=O)CSc3nc4ccccc4nc3N3CCC(C)CC3)CC2)c1,–,active: 65.6 µM
Cc1ccn(CCC(=O)N2CCc3ccccc32)n1,inactive: -1.44%,–
COc1cc2c(O)c3c(c(-c4ccc5c(c4)OCO5)c2cc1OC)C(=O)OC3,–,"inconclusive: 2.61 µM [activator, full curve]"
Cc1ccccc1NC1c2ccccc2C(=O)N1Cc1ccco1 (stereo not drawn),–,"inconclusive: 104 µM [activator, single point]"
CN(C)c1cc(N/N=C\c2ccccc2)nc(N(C)C)n1,–,"inconclusive: 58.5 µM [activator, partial curve]"
Cc1cc(C)c(NC(=O)Cn2nnc(C(=O)NCc3ccc4c(c3)OCO4)c2N)c(C)c1,inactive: 0.198%,–
NC(=O)C1CCN(C(=O)c2cccc3ccccc23)CC1,inactive: -1.24%,–
Cc1ccc(NC(=O)c2ccc(=O)[nH]n2)cc1S(=O)(=O)Nc1ccccc1Cl,inactive: -1.47%,–
CCN(CC)c1ccc(-c2c(C#N)c(N)nc(OC)c2C#N)cc1,–,"inconclusive: 29.3 µM [activator, single point]"
O=C(/C=C/c1ccccc1)CCN1CCOCC1,–,"inconclusive: 52.1 µM [activator, partial curve]"
CC(C)C1Oc2ccccc2N(CC(=O)NC2CCCCC2)C1=O (stereo not drawn),–,active: 58.5 µM
CCN1CCN(C(c2ccccc2)c2nnnn2Cc2ccc3c(c2)OCO3)CC1 (stereo not drawn),inactive: -1.55%,–
CCOC(=O)c1cc(-c2ccccc2C)n(CC2CC(c3ccc(OC)cc3)=NO2)n1 (stereo not drawn),–,"inconclusive: 104 µM [activator, single point]"
S=C(Nc1ccccc1Cl)N1CCCC(c2ccccc2)=N1,–,active: 23.3 µM
CCOC(=O)C1=C(C)NC(C)=C(C(=O)OCC)C1C(=O)OCC(=O)NCCc1ccccc1,–,"inconclusive: 13.1 µM [activator, full curve, poor fit]"
C/C(=N\NC(=S)NC(C)C)c1ccc(Cl)s1,inactive: 0.058%,–
O=C1C=CC2(C=C1)O[C@H](Cc1ccccc1)[C@@H](Cc1ccccc1)O2,–,"inconclusive: 29.3 µM [activator, single point]"
CN(C)S(=O)(=O)c1cccc(NC(=O)CSc2nc3ccccc3n2-c2ccccc2)c1,–,"inconclusive: 16.5 µM [activator, full curve]"
Cc1ccc2oc(=O)c3cnn(CC(=O)Nc4ccccc4N4CCN(C)CC4)c3c2c1,–,"inconclusive: 16.5 µM [activator, full curve]"
CCCCNC(=O)C1CCN(S(=O)(=O)c2c(C)noc2/C=C\c2ccc(OC)cc2)CC1,inactive: -1.02%,–
C=CS(=O)(=O)c1ccc(Oc2ccc(S(=O)(=O)C=C)cc2)cc1,–,active: 52.1 µM
COc1ccc(Nc2cc(C)c3ccc(O)cc3n2)cc1,–,"inconclusive: 14.7 µM [activator, full curve]"
CN(C)c1cccc(C(=O)N(C)C2CCCN(Cc3ccccc3F)C2)c1 (stereo not drawn),–,active: 52.1 µM

# One compound at a time, as listed above.
# CCOC(=O)C1=C(C)NC(C)=C(C(=O)OCC)C1C(=O)OCC(=O)NCCc1ccccc1 in the list: Potency: inconclusive: 13.1 µM [activator, full curve, poor fit]
# CCN(CC)CC(=O)Nc1sc2c(c1C(=O)c1ccccc1OC)CCC2 in the list: Potency: active: 16.5 µM
